# These are yes or no findings as the source states them, for the method shown. Binding seen in cells or lysates may run through a third protein. Some entries that bind do so weakly or less than the wild type.
# By UniProt entry, the sequences of proteins in these tests, tags left out. Where a name states a change or a piece, a line headed by the entry shows the natural chain unless it says otherwise. Chains listed by the source or under a name are the forms on record and can include a tag or linker.
# UniProt O88737: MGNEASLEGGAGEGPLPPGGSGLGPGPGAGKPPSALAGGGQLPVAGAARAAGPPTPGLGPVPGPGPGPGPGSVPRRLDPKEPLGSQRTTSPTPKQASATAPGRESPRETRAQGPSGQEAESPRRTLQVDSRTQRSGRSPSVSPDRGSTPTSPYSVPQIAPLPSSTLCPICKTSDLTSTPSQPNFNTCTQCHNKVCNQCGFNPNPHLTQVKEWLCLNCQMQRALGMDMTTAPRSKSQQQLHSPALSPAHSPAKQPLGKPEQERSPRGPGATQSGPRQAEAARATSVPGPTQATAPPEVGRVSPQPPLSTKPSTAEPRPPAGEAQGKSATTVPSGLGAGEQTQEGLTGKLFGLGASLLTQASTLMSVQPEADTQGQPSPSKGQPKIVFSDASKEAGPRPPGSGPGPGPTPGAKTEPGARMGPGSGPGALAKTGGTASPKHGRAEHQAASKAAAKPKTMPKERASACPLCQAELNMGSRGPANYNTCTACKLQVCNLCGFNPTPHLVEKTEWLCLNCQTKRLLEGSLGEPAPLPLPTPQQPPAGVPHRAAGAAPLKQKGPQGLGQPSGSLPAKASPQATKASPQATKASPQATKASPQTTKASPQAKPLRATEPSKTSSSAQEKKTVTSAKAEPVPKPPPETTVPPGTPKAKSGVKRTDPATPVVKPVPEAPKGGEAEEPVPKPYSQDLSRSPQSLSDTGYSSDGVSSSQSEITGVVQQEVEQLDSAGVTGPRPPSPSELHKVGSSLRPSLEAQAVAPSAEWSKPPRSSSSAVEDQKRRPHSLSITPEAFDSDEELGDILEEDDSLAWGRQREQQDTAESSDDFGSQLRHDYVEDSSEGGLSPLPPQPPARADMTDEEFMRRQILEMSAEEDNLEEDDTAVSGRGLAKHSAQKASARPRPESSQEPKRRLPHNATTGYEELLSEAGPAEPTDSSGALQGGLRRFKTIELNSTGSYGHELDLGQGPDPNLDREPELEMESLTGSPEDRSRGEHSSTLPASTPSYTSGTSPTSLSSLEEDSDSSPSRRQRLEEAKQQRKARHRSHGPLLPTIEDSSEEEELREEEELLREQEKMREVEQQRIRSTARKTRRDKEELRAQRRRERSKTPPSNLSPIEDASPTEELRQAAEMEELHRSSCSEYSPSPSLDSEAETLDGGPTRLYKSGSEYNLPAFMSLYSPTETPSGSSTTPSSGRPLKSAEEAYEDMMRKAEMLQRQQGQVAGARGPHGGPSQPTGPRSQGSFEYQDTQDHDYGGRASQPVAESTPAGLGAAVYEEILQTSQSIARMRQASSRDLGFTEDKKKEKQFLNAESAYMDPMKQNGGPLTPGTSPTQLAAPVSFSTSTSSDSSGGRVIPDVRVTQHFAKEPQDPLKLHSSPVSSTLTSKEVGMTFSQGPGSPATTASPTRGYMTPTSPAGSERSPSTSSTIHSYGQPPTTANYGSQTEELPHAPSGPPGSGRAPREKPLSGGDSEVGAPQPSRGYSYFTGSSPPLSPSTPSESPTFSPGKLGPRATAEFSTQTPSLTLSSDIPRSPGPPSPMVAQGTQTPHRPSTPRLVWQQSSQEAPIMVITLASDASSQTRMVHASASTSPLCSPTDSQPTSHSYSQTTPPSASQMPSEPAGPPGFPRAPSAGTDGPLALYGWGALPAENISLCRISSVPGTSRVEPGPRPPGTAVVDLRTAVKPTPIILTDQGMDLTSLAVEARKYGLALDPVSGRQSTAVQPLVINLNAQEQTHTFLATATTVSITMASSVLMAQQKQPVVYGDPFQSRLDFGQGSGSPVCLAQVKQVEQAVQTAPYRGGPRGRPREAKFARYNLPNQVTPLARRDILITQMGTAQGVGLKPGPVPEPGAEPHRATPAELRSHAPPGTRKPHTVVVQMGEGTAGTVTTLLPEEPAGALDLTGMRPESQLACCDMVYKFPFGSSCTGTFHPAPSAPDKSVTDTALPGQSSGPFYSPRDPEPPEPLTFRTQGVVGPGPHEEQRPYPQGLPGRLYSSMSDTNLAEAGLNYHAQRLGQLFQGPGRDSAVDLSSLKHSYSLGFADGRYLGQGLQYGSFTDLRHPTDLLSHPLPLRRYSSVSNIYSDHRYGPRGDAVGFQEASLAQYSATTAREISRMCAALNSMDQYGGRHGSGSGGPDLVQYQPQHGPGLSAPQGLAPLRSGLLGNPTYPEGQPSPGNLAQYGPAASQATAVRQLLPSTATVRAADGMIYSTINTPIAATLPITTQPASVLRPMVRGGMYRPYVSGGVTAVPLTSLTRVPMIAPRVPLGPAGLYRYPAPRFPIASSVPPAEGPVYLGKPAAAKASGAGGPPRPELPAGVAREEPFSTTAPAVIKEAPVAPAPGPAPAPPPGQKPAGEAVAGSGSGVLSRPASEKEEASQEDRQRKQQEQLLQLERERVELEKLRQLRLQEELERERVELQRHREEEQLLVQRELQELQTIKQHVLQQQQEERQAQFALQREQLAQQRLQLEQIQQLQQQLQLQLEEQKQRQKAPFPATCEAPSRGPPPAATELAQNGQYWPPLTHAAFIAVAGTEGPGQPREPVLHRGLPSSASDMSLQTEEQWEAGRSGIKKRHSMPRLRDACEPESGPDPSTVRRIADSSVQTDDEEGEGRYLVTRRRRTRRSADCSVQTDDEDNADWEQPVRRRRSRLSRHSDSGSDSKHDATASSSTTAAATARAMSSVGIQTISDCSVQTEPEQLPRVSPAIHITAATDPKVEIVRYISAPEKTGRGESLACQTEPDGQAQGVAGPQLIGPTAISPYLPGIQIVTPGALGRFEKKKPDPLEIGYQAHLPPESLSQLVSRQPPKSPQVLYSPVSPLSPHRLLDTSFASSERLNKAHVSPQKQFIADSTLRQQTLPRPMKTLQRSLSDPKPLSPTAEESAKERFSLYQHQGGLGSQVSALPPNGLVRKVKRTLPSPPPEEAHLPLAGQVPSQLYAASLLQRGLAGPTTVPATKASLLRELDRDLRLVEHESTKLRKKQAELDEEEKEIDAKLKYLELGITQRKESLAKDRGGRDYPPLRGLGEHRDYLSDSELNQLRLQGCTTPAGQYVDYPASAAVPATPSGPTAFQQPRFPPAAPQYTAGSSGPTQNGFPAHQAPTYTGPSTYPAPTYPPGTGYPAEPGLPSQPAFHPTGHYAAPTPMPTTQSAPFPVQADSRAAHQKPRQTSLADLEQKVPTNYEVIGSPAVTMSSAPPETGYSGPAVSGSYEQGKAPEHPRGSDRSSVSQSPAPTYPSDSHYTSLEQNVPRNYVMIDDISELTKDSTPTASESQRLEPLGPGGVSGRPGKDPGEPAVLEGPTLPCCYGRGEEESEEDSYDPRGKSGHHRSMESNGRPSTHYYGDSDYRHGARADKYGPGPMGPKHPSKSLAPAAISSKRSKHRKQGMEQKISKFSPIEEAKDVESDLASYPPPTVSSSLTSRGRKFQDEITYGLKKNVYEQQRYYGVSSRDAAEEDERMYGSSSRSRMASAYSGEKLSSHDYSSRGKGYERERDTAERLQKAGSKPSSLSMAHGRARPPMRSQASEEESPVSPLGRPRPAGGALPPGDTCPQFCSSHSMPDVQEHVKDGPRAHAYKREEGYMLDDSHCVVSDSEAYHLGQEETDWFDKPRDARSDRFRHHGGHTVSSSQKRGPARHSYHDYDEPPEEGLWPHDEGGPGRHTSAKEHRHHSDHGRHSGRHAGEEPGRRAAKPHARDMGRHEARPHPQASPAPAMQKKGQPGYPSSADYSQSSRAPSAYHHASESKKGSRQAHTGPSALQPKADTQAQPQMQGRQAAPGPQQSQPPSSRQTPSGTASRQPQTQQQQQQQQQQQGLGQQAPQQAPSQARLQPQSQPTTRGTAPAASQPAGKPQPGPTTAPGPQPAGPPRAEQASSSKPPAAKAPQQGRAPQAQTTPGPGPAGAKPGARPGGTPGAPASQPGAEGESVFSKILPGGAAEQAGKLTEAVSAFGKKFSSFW
# RIBEYE (P56546-2, form named): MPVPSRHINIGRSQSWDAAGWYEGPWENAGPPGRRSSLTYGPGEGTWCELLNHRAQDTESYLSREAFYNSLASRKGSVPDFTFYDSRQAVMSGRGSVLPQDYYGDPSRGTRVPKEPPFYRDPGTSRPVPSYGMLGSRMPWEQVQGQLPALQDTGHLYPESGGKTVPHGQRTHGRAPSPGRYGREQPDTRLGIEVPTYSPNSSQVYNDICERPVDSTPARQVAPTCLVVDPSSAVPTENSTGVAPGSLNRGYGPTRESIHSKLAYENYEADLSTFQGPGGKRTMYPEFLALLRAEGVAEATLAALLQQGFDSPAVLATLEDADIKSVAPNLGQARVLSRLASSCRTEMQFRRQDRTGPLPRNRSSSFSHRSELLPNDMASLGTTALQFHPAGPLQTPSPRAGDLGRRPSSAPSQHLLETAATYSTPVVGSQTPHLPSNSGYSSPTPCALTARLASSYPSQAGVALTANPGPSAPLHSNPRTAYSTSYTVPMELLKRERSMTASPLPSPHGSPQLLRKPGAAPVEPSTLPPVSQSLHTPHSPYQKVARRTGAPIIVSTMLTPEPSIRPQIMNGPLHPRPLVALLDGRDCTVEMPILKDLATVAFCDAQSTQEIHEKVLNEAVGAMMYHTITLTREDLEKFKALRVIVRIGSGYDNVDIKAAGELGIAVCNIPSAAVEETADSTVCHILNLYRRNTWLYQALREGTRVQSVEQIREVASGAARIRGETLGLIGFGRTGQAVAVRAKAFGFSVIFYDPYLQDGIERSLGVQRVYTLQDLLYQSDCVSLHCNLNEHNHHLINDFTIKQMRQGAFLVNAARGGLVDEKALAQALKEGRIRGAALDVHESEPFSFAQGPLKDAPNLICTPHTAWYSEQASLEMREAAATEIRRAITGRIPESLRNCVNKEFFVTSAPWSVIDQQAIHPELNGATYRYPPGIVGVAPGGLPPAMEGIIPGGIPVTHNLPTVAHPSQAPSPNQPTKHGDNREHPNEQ
# Biological target: Bassoon (mouse (endogenous in mouse retina)) (UniProt O88737)
# Test: proximity ligation; in situ PLA (Duolink, anti-rabbit PLUS and anti-mouse MINUS probes) on 12 µm vertical cryosections of wild-type mouse retina; primary antibodies overnight at room temperature; signal when the two antigens are <40 nm apart
row,binding,Substance
1,binds,RIBEYE (from UniProt P56546-2 1-988)
2,binds,full-length Piccolo (from UniProt Q9QYX7-1 1-5068)

# — paper PMC3735604
